{"source": "ChEMBL document CHEMBL4513143", "about": "“CO-ADD screening of University of Natural Resources and Life (Austria) compounds”", "note": "Some of the results follow. Results with a measured potency or affinity are listed apart.", "data": [{"system": "Pseudomonas aeruginosa", "conditions": "Concentration 32 ug.mL-1; ASSAY_TEST Inhibition of Bacterial Growth; detection method Absorption (OD600); MEDIA CAMHB; plate type 384well; NBS; CORNING #3640; time 18 hr", "units": {"Inhibition": "%"}, "values": [{"smiles": "[N-]=[N+]=NC[C@H]1OC(O)[C@@H](O)[C@@H]1O", "note": "(stereo partly specified)", "Inhibition": 1.65}]}]}
